What all share (experiment): co-IP; immunoprecipitation with an antibody against β1 or β3 integrin from EC lysates, Western blot with antibodies against TβRI and TβRII; ECs plated on FN or LM, static or OSS (0.5 ± 4 dyn/cm^2) for 1 h or 24 h; lysis buffer 25 mM Hepes pH 7.4, 1% Triton X-100, 1% deoxycholate, 0.1% SDS, 0.125 M NaCl, 5 mM EDTA
(In western blotting, separated proteins are transferred to a membrane and probed.)

The chains behind the UniProt entries cited, without tags or fusion partners. Residues count along the entry.
UniProt P05556: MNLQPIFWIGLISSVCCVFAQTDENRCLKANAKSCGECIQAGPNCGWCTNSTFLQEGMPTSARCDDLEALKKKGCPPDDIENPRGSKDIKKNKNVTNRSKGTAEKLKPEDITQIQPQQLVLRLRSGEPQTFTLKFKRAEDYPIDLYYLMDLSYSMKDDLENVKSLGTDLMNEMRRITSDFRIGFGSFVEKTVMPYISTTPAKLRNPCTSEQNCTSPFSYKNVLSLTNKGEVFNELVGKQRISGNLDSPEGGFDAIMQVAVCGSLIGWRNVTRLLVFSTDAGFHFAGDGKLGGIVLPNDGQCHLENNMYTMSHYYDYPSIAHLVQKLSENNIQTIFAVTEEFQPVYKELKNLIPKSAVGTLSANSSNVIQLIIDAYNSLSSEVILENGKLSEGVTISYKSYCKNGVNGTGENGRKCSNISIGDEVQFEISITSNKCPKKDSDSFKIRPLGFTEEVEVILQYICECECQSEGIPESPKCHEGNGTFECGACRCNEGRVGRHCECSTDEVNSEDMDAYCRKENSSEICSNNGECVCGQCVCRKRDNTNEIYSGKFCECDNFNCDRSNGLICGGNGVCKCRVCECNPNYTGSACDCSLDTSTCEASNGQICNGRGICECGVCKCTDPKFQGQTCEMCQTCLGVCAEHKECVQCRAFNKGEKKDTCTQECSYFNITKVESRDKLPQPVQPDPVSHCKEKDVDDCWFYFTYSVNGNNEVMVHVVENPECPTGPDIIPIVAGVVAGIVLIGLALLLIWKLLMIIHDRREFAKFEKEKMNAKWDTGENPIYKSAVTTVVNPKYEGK
UniProt P37173, residues 23-567: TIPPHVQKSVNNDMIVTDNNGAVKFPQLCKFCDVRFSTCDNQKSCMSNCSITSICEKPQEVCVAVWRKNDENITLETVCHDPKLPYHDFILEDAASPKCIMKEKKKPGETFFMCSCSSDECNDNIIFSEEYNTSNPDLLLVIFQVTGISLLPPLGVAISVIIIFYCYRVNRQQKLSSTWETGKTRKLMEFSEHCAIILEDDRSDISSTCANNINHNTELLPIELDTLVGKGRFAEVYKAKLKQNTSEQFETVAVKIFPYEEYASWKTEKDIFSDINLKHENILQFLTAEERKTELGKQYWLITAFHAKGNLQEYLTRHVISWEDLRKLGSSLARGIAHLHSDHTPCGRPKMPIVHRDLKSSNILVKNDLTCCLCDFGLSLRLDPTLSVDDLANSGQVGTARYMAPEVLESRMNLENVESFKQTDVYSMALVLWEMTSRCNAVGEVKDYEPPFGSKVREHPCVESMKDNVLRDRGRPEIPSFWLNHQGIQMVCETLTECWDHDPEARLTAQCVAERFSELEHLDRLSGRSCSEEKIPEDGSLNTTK

Experiment [1] deals with β3 integrin (human (endogenous in umbilical cord ECs)) (UniProt P05106).
For experiment [2], the target named is β1 integrin (human (endogenous in umbilical cord ECs)) (UniProt P05556).
Experiment [3] addresses T1, β3 integrin (human (endogenous in umbilical cord ECs)), P05106.
T1 chain: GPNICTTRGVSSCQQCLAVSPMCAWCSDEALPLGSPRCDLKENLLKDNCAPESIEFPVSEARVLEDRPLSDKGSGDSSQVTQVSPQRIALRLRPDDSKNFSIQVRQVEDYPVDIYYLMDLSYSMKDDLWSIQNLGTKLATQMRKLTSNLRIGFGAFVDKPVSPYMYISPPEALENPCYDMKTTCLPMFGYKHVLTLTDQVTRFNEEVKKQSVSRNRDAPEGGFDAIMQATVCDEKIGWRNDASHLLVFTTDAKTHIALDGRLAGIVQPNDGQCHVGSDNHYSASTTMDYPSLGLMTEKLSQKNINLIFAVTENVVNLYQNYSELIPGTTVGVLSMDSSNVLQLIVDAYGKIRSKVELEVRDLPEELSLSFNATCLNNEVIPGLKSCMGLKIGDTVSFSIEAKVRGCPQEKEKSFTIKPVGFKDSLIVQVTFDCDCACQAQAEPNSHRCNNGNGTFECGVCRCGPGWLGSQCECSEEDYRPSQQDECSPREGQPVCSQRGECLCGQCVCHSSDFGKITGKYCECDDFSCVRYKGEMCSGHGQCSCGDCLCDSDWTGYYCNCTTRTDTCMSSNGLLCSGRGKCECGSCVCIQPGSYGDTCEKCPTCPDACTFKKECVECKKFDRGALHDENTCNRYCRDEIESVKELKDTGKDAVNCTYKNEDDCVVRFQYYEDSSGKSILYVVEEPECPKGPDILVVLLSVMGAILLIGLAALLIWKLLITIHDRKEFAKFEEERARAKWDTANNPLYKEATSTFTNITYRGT
The following applies: remark: other sources report otherwise.

Results are given in words; binding and its absence hold for the method and conditions named. Binding seen in cells or lysates may run through a third protein. Some results given as binding are weak or reduced against the parent protein; the word gives no strength.

In the case of “TGF-β receptor type II (from UniProt P37173 23-567)”, the binding entry in experiment [1] and in experiment [2] was “binds” throughout.

B1: TGF-β receptor type I (receptor, UniProt P36897 34-503)
chain: LQCFCHLCTKDNFTCVTDGLCFVSVTETTDKVIHNSMCIAEIDLIPRDRPFVCAPSSKTGSVTTTYCCNQDHCNKIELPTTVKSSPGLGPVELAAVIAGPVCFVCISLMLMVYICHNRTVIHHRVPNEEDPSLDRPFISEGTTLKDLIYDMTTSGSGSGLPLLVQRTIARTIVLQESIGKGRFGEVWRGKWRGEEVAVKIFSSREERSWFREAEIYQTVMLRHENILGFIAADNKDNGTWTQLWLVSDYHEHGSLFDYLNRYTVTVEGMIKLALSTASGLAHLHMEIVGTQGKPAIAHRDLKSKNILVKKNGTCCIADLGLAVRHDSATDTIDIAPNHRVGTKRYMAPEVLDDSINMKHFESFKRADIYAMGLVFWEIARRCSIGGIHEDYQLPYYDLVPSDPSVEEMRKVVCEQKLRPNIPNRWQSCEALRVMAKIMRECWYANGAARLTALRIKKTLSQLSQQEGIKM
With B1, the binding entry in experiment [2] is on record as “binds”.

B2: TGF-β receptor type I, P36897 34-503 (receptor)
chain: B1 chain
B2: in experiment [3], the binding result was “binds”.

The values are drawn from article PMC5749020.
